Reference: patent US6504005B1, “Long-acting drugs and pharmaceutical compositions comprising them” (Yeda Research and Development Co. Ltd., priority 1996, dated 2003)
Like-named read-outs stand apart in the source and are kept apart here.

Test system: Staphylococcus aureus
Experiment: microbe, parasite or virus in culture
Settings: for IC50: Staphylococcus aureus
Method: At the indicated time points, aliquots were withdrawn and analyzed for their potency to arrest growth of Staphylococcus aureus. Bacterial growth was then evaluated by increased turbidity measured spectroscopically at 700 nm.

## CC1=C(C(=O)O)N2C(=O)[C@@H](NC(=O)[C@H](N)c3ccccc3)[C@H]2SC1 [native cephalexin, 7-(D-α-aminophenylacetamido)desacetoxycephalosporanic acid, reference compound]
24 h, pH 7.4, read-out: Concentration inhibiting 50% of bacterial growth (μM) (IC50)
  IC50: 1.5 µM
72 h, pH 7.4, read-out: Concentration inhibiting 50% of bacterial growth (μM) (IC50)
  IC50: 5.3 µM
144 h, pH 7.4, read-out: Concentration inhibiting 50% of bacterial growth (μM) (IC50)
  IC50: 18 µM
read-out: Concentration inhibiting 50% of bacterial growth (μM) (IC50)
  IC50: 0.9 µM
pH 7.4, 37° C.
  Stability upon incubation: substantial time-dependent spontaneous inactivation
